The record followed here is publication doi:10.1101/827725.

Protein sequences, listed by entry. Tags and fused reporters are not part of them.
UniProt P46937: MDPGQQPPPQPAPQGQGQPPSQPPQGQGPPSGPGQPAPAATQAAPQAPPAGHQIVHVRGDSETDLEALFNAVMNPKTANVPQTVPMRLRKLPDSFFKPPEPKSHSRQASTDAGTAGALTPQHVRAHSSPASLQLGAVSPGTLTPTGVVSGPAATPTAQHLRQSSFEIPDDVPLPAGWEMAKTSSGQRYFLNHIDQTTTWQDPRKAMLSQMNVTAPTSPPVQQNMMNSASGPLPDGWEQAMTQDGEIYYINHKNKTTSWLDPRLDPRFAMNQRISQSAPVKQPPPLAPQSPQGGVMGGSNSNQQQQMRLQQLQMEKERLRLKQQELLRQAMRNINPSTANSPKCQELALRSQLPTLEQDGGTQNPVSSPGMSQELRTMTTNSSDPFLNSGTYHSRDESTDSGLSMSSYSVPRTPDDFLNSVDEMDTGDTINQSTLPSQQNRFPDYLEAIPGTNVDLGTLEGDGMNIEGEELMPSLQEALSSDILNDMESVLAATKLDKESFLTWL

Test [1] has as its target phospho-YAP (pYAP-S127) (human (endogenous in HaCaT and primary foreskin keratinocytes)) (UniProt P46937). Put plainly: co-IP.
For test [2], the target named is Yes-associated protein (YAP) (human (endogenous in HaCaT and primary foreskin keratinocytes)) (UniProt P46937). Put plainly: co-IP.

No constants are given. Whether binding was seen depends on the method and setting. Binding seen in cells or lysates may run through a third protein. Some entries that bind do so weakly or less than the wild type.

B1: plakophilin1 (protein, UniProt Q13835 1-747)
chain: MNHSPLKTALAYECFQDQDNSTLALPSDQKMKTGTSGRQRVQEQVMMTVKRQKSKSSQSSTLSHSNRGSMYDGLADNYNYGTTSRSSYYSKFQAGNGSWGYPIYNGTLKREPDNRRFSSYSQMENWSRHYPRGSCNTTGAGSDICFMQKIKASRSEPDLYCDPRGTLRKGTLGSKGQKTTQNRYSFYSTCSGQKAIKKCPVRPPSCASKQDPVYIPPISCNKDLSFGHSRASSKICSEDIECSGLTIPKAVQYLSSQDEKYQAIGAYYIQHTCFQDESAKQQVYQLGGICKLVDLLRSPNQNVQQAAAGALRNLVFRSTTNKLETRRQNGIREAVSLLRRTGNAEIQKQLTGLLWNLSSTDELKEELIADALPVLADRVIIPFSGWCDGNSNMSREVVDPEVFFNATGCLRKRLGMRELLALVPQRATSSRVNLSSADAGRQTMRNYSGLIDSLMAYVQNCVAASRCDDKSVENCMCVLHNLSYRLDAEVPTRYRQLEYNARNAYTEKSSTGCFSNKSDKMMNNNYDCPLPEEETNPKGSGWLYHSDAIRTYLNLMGKSKKDATLEACAGALQNLTASKGLMSSGMSQLIGLKEKGLPQIARLLQSGNSDVVRSGASLLSNMSRHPLLHRVMGNQVFPEVTRLLTSHTGNTSNSEDILSSACYTVRNLMASQPQLAKQYFSSSMLNNIINLCRSSASPKAAEAARLLLSDMWSSKELQGVLRQQGFDRNMLGTLAGANSLRNFTSRF
B1: the binding entry in test [1] and in test [2] was “binds” in each case.
